These results are taken from publication PMC9246096, “Structure-activity relationship studies for inhibitors for vancomycin-resistant Enterococcus and human carbonic anhydrases” (Journal of Enzyme Inhibition and Medicinal Chemistry, 2022).

Sequences of proteins named here, by UniProt entry; tags and fusion partners are left off.
UniProt Q3XX77, entry or part of it: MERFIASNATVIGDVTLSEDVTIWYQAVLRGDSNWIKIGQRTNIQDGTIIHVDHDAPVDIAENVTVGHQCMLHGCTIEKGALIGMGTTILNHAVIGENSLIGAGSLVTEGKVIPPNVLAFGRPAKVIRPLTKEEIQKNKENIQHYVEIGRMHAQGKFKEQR

The target in this test is E. faecium γ-CA (Efγ-CA) (Enterococcus faecium, UniProt Q3XX77). Description: biochemical. As to conditions: recombinant Efγ-CA, Ki from IC50 via Cheng–Prusoff. How it is done:
Both Efα-CA and Efγ-CA were recombinantly expressed and purified as follows. A pHis2 plasmid (GenScript) containing either the Efα-CA sequence or Efγ-CA sequence was used for the expression of hexa-histidine tagged protein in a bacterial culture. […] Starter cultures were grown at 37 °C with shaking at 225 rpm overnight. One litre of autoclaved Luria-Bertani broth containing 100 µg/mL ampicillin and 1 mM ZiCl2 was inoculated with a 10-ml aliquot of the starter culture and grown at 37 °C with shaking at 225 rpm to an OD of 0.8 before being cold shocked and induced with 500 µL of IPTG (1 M). The induced cultures were grown for 16 h at 17 °C with shaking at 225 rpm. Bacterial cell pellets were spun down at 4000 g for 20 min and resuspended in 1× PBS containing 0.5 mM TCEP, 5% glycerol, pH = 7.4 to which 5 mg lysozyme was added to aid in lysis. The resuspended bacterial cells were incubated on ice for 20 min and then lysed via sonication. […] Fractions that contained the desired protein, as determined by SDS-PAGE, were combined and subjected to TEV protease for His-tag cleavage. […]
The assay was performed according to previously published protocols. […] Ki values were determined from inputting the IC50 values into the Cheng–Prusoff equation[25] for Ki from catalytic inhibition constants.

pKi: −log10 of the molar value.

With `CC(=O)Nc1nnc(S(N)(=O)=O)s1` [AZM, acetazolamide, reference compound], the pKi (commonly −log10 of the Ki, conventionally taken in molar units) is 6.49.
